{"source": "paper PMC7055314", "about": "“Ratiometric population sensing by a pump-probe signaling system in Bacillus subtilis” (Nature Communications, 2020)", "binders": {"B1": {"name": "Spo0F-YFP (protein, UniProt P06628 1-124)", "chain": "MMNEKILIVDDQYGIRILLNEVFNKEGYQTFQAANGLQALDIVTKERPDLVLLDMKIPGMDGIEILKRMKVIDENIRVIIMTAYGELDMIQESKELGALTHFAKPFDIDEIRDAVKKYLPLKSN"}}, "molecular_target": "T1, CFP-RapA (Bacillus subtilis 168, UniProt Q00828 1-378)", "T1 construct": "RapA, Rap-family RRNPP-type receptor (response regulator aspartate phosphatase A) of Bacillus subtilis; rapA amplified from B. subtilis 168 genomic DNA; ecfp(Bs) is joined to the N-terminus of RapA by a GSGGV linker; also called RapA receptor; RapA-CFP; source: B. subtilis reporter strain BIB625 (ΔrapA-phrA Δspo0F), IPTG-induced from the amyE locus, in living cells; not shown: eCFP(Bs), …", "T1 sequence (looked up)": "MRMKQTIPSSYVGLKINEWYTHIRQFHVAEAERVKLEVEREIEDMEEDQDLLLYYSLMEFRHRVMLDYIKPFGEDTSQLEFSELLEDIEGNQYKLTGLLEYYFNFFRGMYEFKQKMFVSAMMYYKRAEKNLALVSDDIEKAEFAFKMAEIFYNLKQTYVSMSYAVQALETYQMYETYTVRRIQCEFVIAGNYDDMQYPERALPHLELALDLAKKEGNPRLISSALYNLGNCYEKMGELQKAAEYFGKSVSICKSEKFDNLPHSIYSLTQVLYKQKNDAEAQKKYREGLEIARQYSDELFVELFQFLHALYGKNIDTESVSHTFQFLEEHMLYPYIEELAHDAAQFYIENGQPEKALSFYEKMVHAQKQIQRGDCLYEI", "assay": "FRET or BRET; E-FRET imaging of single B. subtilis reporter cells, stimulated with PhrA", "note": "These are yes or no findings as the source states them, for the method shown. In cells and extracts the contact can be indirect. Some binding calls cover weakened binding; strength is not graded here. Sequences can lack the tags named with a protein.", "data": [{"binder": "B1", "values": [{"measurement": "binding", "value": "binds"}]}]}
